Laboratory results taken from publication PMC10347550 (Journal of the American Chemical Society, 2023).

Experiments:
[1] = Photosubstitution quantum yields by UV-vis under green light; format: physicochemical; conditions: 515 nm LED, 25 °C
[2] = Singlet oxygen generation quantum yield, 1275 nm emission; format: physicochemical; conditions: direct detection of 1275 nm emission
[3] = Fmoc solid-phase peptide synthesis; conditions: whole synthesis
peptide made by a vendor = conditions: whole synthesis, LC-MS

With “[Ru(Ph2phen)2(κ^S,κ^N-(Ac-MRGDH-NH2))]Cl2 (sidechain bridge or staple) [Λ-[1]Cl2] [cyclic ruthenium-peptide conjugate, Ac-MRGDH-NH2 coordinated via Met S and His N]” the “ΦPS1, first photosubstitution quantum yield” value ([1]; in H2O) was 0.13, the “ΦPS2, second photosubstitution quantum yield” value ([1]; in H2O) was 0.0007 and the “ΦPS1, first photosubstitution quantum yield” value ([1]; in H2O/CH3CN 1:1 mixture) was 0.25. For the same substance, the “ΦPS2, second photosubstitution quantum yield” value ([1]; in H2O/CH3CN 1:1 mixture) was 0.0024 and the “ΦΔ, singlet oxygen generation quantum yield” value [2] was 0.046.

For Ac-MRGDH-NH2, the “crude LC-MS purity” value [3] was over 90%.

With “[Ru(Ph2phen)2(κ^S,κ^N-(Ac-MRGDH-NH2))]Cl2 (sidechain bridge or staple) [Δ-[1]Cl2] [cyclic ruthenium-peptide conjugate, Ac-MRGDH-NH2 coordinated via Met S and His N]” the “ΦΔ, singlet oxygen generation quantum yield” value [2] was 0.059.

With Ac-MRADH-NH2 the “purity (crude or final not stated)” value (peptide made by a vendor) was 95% purity.
